Structures are written as SMILES. About 250 (13%) of roughly 1,900 compounds were called active. Another 4% or so got no clear call; they are omitted.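 How the source made its calls: active means fitted curve reaches 40% rescue activity at or below the top valid dose, in every test run; inconclusive means test runs disagree, some active and some inactive; inactive means every run misses the threshold or moves the wrong way.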 The list shows a part of the results, in another mix than the full data. Potency and affinity values are given separately.

This assay in a line: rescue of simvastatin-induced ATP loss – cell-based, C2C12 myotubes, ATP luminescence, cherry pick, dose response (AID 624405).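 Further: myotubes are challenged with simvastatin at 10 µM to lower ATP.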 The settings on record: 48 h, scaled: DMSO wells 0, geranylgeraniol wells 100; at 19.5 µM (top of the series) unless noted.
`CSc1nsc(/C=C/Nc2ccc(Cl)cc2)c1C#N`: the rescue activity (ATP increase) was inactive: 15.3%.
For the compound `Cc1noc(C)c1S(=O)(=O)Nc1ccc2c(c1)C(=O)N([C@@H](C)CO)C[C@@H](C)[C@H](CN(C)Cc1ccc(Cl)c(Cl)c1)OCCCC[C@@H](C)O2`, the rescue activity (ATP increase) is inactive: 27%.
Consider `C[C@@H]1CCCCO[C@@H](CN(C)CC2CCCCC2)[C@@H](C)CN([C@H](C)CO)C(=O)c2cc(NS(=O)(=O)c3ccccc3)ccc2O1`, for which the rescue activity (ATP increase) was inactive: -12.2%.
As for `CCOC(=O)C1(CCSC)NC(c2ccco2)C2C(=O)N(CC)C(=O)C21` (stereo not given), the figure is inactive: -4.66%; as for `CC(=O)c1cccc(NC(=O)CN(c2cccc(F)c2)S(C)(=O)=O)c1`, inactive: -1.17%; as for `COc1ccc(C#Cc2cnc3c(c2)C(=O)N([C@H](C)CO)C[C@H](C)[C@H](CN(C)C(=O)Nc2cccc(OC)c2)O3)cc1`, inactive: 30.4% [at 21 µM].
As for `COc1ccc(S(=O)(=O)Nc2ccc3c(c2)CC(=O)N([C@@H](C)CO)C[C@@H](C)[C@@H](CN(C)Cc2ccc(Cl)c(Cl)c2)O3)cc1`, the figure is inactive: 29% [at 21 µM]; as for `CCOC(=O)c1nnc(-c2ccc(C)cc2)nc1Sc1ccc(Cl)cc1`, inactive: 28%.
Consider `O=C(CN1CCN(CCOCCO)CC1)N1c2ccccc2Sc2ccc(Cl)cc21`, for which the rescue activity (ATP increase) is inactive: 29.5%.
On to `COc1ccc(NC(=O)Nc2cccc3c2O[C@@H](CN(C)Cc2ccc(Oc4ccccc4)cc2)[C@@H](C)CN([C@@H](C)CO)C3=O)cc1`, for which the rescue activity (ATP increase) is inactive: -0.035%.
As for `O=C(NCc1ccccc1)Oc1cccc(Cl)c1`, the rescue activity (ATP increase) was inactive: 26.1%.
As for `CCOc1nnc(C)c2c(C)n(-c3ccc(Cl)cc3)nc12`, the figure is inactive: 44.4%; as for `N#CCCN1CCN(Cn2c3ccccc3c3ccccc32)CC1`, inactive: 2.27%.
As for `COc1ccc(NC(=O)Nc2ccc3c(c2)C(=O)N([C@@H](C)CO)C[C@H](C)[C@@H](CN(C)C(=O)Nc2ccc(C(F)(F)F)cc2)O3)cc1`, the figure is inactive: 18.2%; as for `COc1ccc(NC(=O)CSc2nnc(-c3ccccc3Cl)n2Cc2ccco2)c(OC)c1`, inactive: 13.5%.
As for `Cn1nnnc1SCCOc1ccc(C#N)cc1`, the figure is inactive: -18.8%; as for `Cc1ccc(OCCCn2c(CO)nc3ccccc32)cc1`, inactive: 28.8%; as for `Nc1ccc2c3c(cccc13)-c1ccccc1-2`, inactive: 14.6%.
On to `C[C@@H]1CN([C@H](C)CO)C(=O)c2cc(NC(=O)Cc3ccccc3)ccc2O[C@@H](C)CCCCO[C@@H]1CN(C)Cc1ccc(C(F)(F)F)cc1`, for which the rescue activity (ATP increase) was inactive: -20.6%.
On to `CCOc1cc(C(=O)Nc2cccc3ncccc23)cc(OCC)c1OCC`, for which the rescue activity (ATP increase) is inactive: -1.37%.
Take `C[C@H]1CN([C@@H](C)CO)C(=O)c2cc(NC(=O)Cc3ccccc3)ccc2O[C@@H]1CN(C)S(=O)(=O)c1cccs1`: the rescue activity (ATP increase) was inactive: 10.1%.
Then `COc1ccc(CN(C)C[C@@H]2Oc3ccc(NS(=O)(=O)c4ccc(C)cc4)cc3CC(=O)N([C@H](C)CO)C[C@H]2C)cc1`, with inactive: 16%; and `CC(C(=O)NCC1CCCO1)n1cccc1C(=O)c1ccccc1` (stereo not given), with inactive: 13%.
For `COc1ccc(NC(=O)Nc2ccc3c(c2)C(=O)N([C@H](C)CO)C[C@@H](C)[C@H](CN(C)Cc2ccc(C(F)(F)F)cc2)OCCCC[C@@H](C)O3)cc1`, the rescue activity (ATP increase) is inactive: -23.2%.
Regarding `CCc1nnc(NC(=O)Cn2c(=O)oc3ccccc32)s1`, the rescue activity (ATP increase) is inactive: -2.91%.
In the case of `Cc1cc(S(=O)(=O)Nc2nc(CN3CCOCC3)nc3sc4c(c23)CCCC4)ccc1F`, the rescue activity (ATP increase) was inactive: -8.27%.
Then `Cc1sc2nc(CN(C(=O)c3cccs3)C3CCCC3)[nH]c(=O)c2c1C`, with inactive: 14.6%; and `Cc1ccc(S(=O)(=O)NCC(=O)OCC(=O)c2cccs2)cc1`, with inactive: -36.5%.
Consider `CCN(CC)C(=O)c1scc2c1OCCO2`, for which the rescue activity (ATP increase) is inactive: -1.7%.
Then `C[C@H](CO)N1C[C@H](C)[C@@H](CN(C)S(=O)(=O)c2ccc(Cl)cc2)OCCCC[C@H](C)Oc2ccc(NS(C)(=O)=O)cc2C1=O`, with inactive: -2.17%.
As for `CCOC(=O)c1[nH]c2ccc(Br)cc2c1NC(=O)CCN1CCN(C(=O)OCC)CC1`, the figure is inactive: 45.9%.
On to `CCCCOC(=O)Cn1c(=O)c2c(nc3n2CCCCN3c2ccc(C)cc2)n(C)c1=O`, for which the rescue activity (ATP increase) is inactive: -4.89%.
As for `COc1ccc(NC(=O)N(C)C[C@@H]2Oc3c(NC(=O)c4ccncc4)cccc3C(=O)N([C@H](C)CO)C[C@@H]2C)cc1`, the figure is inactive: 12.4%; as for `Cc1cccc(OCCCCc2c(C)n[nH]c2C)c1C`, inactive: 33.2%; as for `CCC(OC(=O)c1cccs1)C(=O)NCc1ccco1` (stereo not given), inactive: 9.03%.
On to `O=C(COc1cccc(Oc2ccccc2)c1)Nc1ncccn1`, for which the rescue activity (ATP increase) was inactive: 3.89%.
As for `CC1CCCCN1S(=O)(=O)c1ccc(NC(=O)c2ccco2)cc1` (stereo not given), the figure is inactive: -51%.
Then `C[C@H]1CN([C@@H](C)CO)C(=O)Cc2cc(NC(=O)CCCCCC(=O)Nc3ccccc3N)ccc2O[C@@H]1CN(C)Cc1ccc(-c2ccccc2)cc1`, with inactive: 24.2%; and `C[C@@H]1CN([C@@H](C)CO)C(=O)Cc2cc(NC(=O)Nc3cccc4ccccc34)ccc2O[C@@H]1CN(C)S(=O)(=O)c1ccc(Cl)cc1`, with inactive: 8.86%.
Regarding `C[C@@H]1CCCCO[C@@H](CN(C)Cc2ccc(Cl)c(Cl)c2)[C@H](C)CN([C@@H](C)CO)C(=O)c2cc(NS(C)(=O)=O)ccc2O1`, the rescue activity (ATP increase) was inactive: 8.52%.
As for `C[C@@H]1CN([C@H](C)CO)C(=O)c2cc(NC(=O)Nc3cccc4ccccc34)ccc2O[C@@H](C)CCCCO[C@@H]1CN(C)C(=O)NC1CCCCC1`, the figure is inactive: 22% [at 21 µM]; as for `CCOC(=O)c1c(C)sc2c1N(C(=O)CN(CC)CC)c1cc(Cl)ccc1S2`, inactive: 13.2%; as for `Nc1nnc(-c2ccccc2)c(-c2ccccc2)n1`, inactive: 15.7%.
`COc1ccc(NC(=O)Nc2ccc3c(c2)C(=O)N([C@@H](C)CO)C[C@@H](C)[C@H](CN(C)Cc2ccc(C(F)(F)F)cc2)OCCCC[C@@H](C)O3)cc1`: the rescue activity (ATP increase) is inactive: -9.75%.
Consider `COc1ccc(OCCNS(=O)(=O)c2ccc3oc4ccccc4c3c2)cc1`, for which the rescue activity (ATP increase) is inactive: 13.6%.
As for `COc1ccc(NC(=O)Nc2ccc3c(c2)C(=O)N([C@@H](C)CO)C[C@H](C)[C@H](CN(C)C(=O)C2CCCCC2)OCCCC[C@H](C)O3)cc1`, the figure is inactive: 12.4%; as for `CC(C)(C)n1nnnc1C(c1cccs1)N(Cc1ccccc1)Cc1cccnc1` (stereo not given), inactive: -10.9%; as for `NC(=O)COC(=O)C(Cc1ccccc1)NS(=O)(=O)c1ccccc1F` (stereo not given), inactive: -32.6%.
Consider `COc1ccc(/C=N/NS(=O)(=O)c2ccccc2)cc1OC(=O)c1ccc(C)cc1`, for which the rescue activity (ATP increase) was inactive: -7.16%.
As for `C[C@H]1CN([C@@H](C)CO)C(=O)Cc2cc(NC(=O)CCCCCC(=O)Nc3ccccc3N)ccc2O[C@@H]1CN(C)Cc1ccc(Oc2ccccc2)cc1`, the figure is inactive: 37.8% [at 21 µM]; as for `Cc1ccc(S(=O)(=O)Nc2ccc3c(c2)CC(=O)N([C@H](C)CO)C[C@H](C)[C@H](CN(C)S(=O)(=O)c2ccc(C)cc2)O3)cc1`, inactive: 19.9%; as for `CC(=O)N1C=CN(C(C)=O)C(c2cn(C)c3ccccc23)C1c1cn(C)c2ccccc12` (stereo not given), inactive: 25.1%.
On to `CCOc1ccc(-c2nc(CSCC(=O)NCc3ccco3)c(C)o2)cc1`, for which the rescue activity (ATP increase) was inactive: 0.229%.
Then `COc1ccc(C#Cc2cnc3c(c2)C(=O)N([C@@H](C)CO)C[C@@H](C)[C@@H](CN(C)C(=O)Nc2cccc(OC)c2)O3)cc1`, with inactive: 23.6%; and `C[C@H]1CN([C@@H](C)CO)C(=O)Cc2cc(NC(=O)CCCCCC(=O)Nc3ccccc3N)ccc2O[C@@H]1CN(C)Cc1ccc(Cl)c(Cl)c1`, with inactive: 37.1% [at 18 µM].
As for `COc1ccc(C2CC(c3c(O)cc(C)oc3=O)=NCCS2)c(OC)c1` (stereo not given), the figure is inactive: -139%.
As for `COCCNC(=O)CSc1nc2ccccc2c2nc(C)nn12`, the figure is inactive: -16.7%; as for `COc1ccc(S(=O)(=O)N2CCN(Cc3cccc(Cl)c3)CC2)cc1`, inactive: 21.4%.
On to `C[C@@H]1CN([C@H](C)CO)C(=O)Cc2cc(NS(=O)(=O)c3ccc(F)cc3)ccc2O[C@H]1CN(C)Cc1ccc2c(c1)OCO2`, for which the rescue activity (ATP increase) is inactive: 4.84% [at 10 µM].
As for `C[C@@H]1CN([C@H](C)CO)C(=O)c2cccc(NC(=O)Nc3ccccc3)c2O[C@@H]1CN(C)S(=O)(=O)c1ccccc1`, the rescue activity (ATP increase) was inactive: 26.7%.
As for `Cc1c(C(=O)N2CCc3ccccc32)oc2c1C(=O)CC(C)(C)C2`, the figure is inactive: -12.6%; as for `CCc1cccc(NC(=O)c2ccc(CNc3c(N4CCCC4)c(=O)c3=O)cc2)c1`, inactive: 17.3%.
As for `COc1ccc(C#Cc2cnc3c(c2)C(=O)N([C@@H](C)CO)C[C@H](C)[C@@H](CN(C)C(=O)Nc2cccc(OC)c2)O3)cc1`, the rescue activity (ATP increase) is inactive: 20.3%.
Then `CN(C)c1ccc(C2C3C(=O)N(c4ccc(C(=O)O)cc4)C(=O)C3ON2c2ccccc2)cc1` (stereo not given), with inactive: -24.5%; and `C[C@H](CO)N1C[C@H](C)[C@@H](CN(C)Cc2ccc(Cl)c(Cl)c2)Oc2ccc(NC(=O)Cn3cnnn3)cc2CC1=O`, with inactive: 23.7%.
As for `O=C1NC(=NCc2ccccc2)NC1(c1ccccc1)c1ccccc1`, the figure is inactive: -1.64%; as for `C[C@H]1CN([C@@H](C)CO)C(=O)Cc2cc(NC(=O)Nc3ccc(C(F)(F)F)cc3)ccc2O[C@H]1CN(C)C(=O)Nc1ccc(F)cc1`, inactive: -7.06%.
As for `O=C(CSCCO)N1CCc2ccccc21`, the figure is inactive: -18.5%; as for `C[C@H]1CN([C@@H](C)CO)C(=O)c2cccc(NC(=O)Nc3cccc4ccccc34)c2O[C@H]1CN(C)Cc1ccc(C(F)(F)F)cc1`, inactive: 34.5%; as for `O=C(Nc1ccc(Br)cc1)C1CCCN1S(=O)(=O)c1cccs1` (stereo not given), inactive: 22.4%.

The values are drawn from PubChem BioAssay AID624405 (Broad Institute, 2012).
